Data as given in PubChem BioAssay AID504764 (Drosophila RNAi Screening Center, 2011)

Aim: 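Genome-wide screen for regulators of Notch-driven gene expression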 (primary screen)
Cells: Drosophila Kc167 cells
Knock-down reagent: long dsRNA against Drosophila genes
Timing: about 5 days (4 days dsRNA, then 24 h after transfection)
Challenge: transfection of constitutively active membrane-tethered Notch lacking the extracellular domain, read 24 h later
Measurement: 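Firefly luciferase from an E(spl)m3 reporter with active Notch, plus control-promoter and uninduced reporter wells for normalisation; unnormalised counts, duplicate wells a and b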
Reading the numbers: induced reporter light, run 1, well a and induced reporter light, run 1, well b: higher = more light from the Notch target reporter with active Notch; control promoter light, run 1, well a and control promoter light, run 1, well b: higher = more light from the viral control promoter (cell number, transfection, viability); uninduced reporter light, run 1, well a: higher = more light from the Notch target reporter without active Notch
Call rule: 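Wells with low control signal or poorly matching duplicates excluded; duplicates averaged; per source plate, z beyond ±2 for induced/control log2 ratio or beyond ±1.8 for induced/uninduced marks a hit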
Calls: active = modifier hit (raised or lowered Notch signal); inactive = not a hit
The deposit covers about 22,000 reagents; below is a random part of those with a known target gene and a result. In the full data, 403 (1.9%) got an active call. 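Unnormalised raw counts per well; ratio z-scores behind the hit calls and whether each hit raises or lowers signal are not deposited.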 The record does not give: the amount of reagent.

After knock-down of qkr54B (GeneID 36966) [DRSC07670] the results were induced reporter light, run 1, well a = 93450; induced reporter light, run 1, well b = 96950; control promoter light, run 1, well a = 1.05e5; control promoter light, run 1, well b = 1.14e5; uninduced reporter light, run 1, well a = 8345; inactive.
Depletion of Ir7d (GeneID 7354416) [DRSC18010] came out at: induced reporter light, run 1, well a = 29990; induced reporter light, run 1, well b = 36030; control promoter light, run 1, well a = 49855; control promoter light, run 1, well b = 41670; uninduced reporter light, run 1, well a = 2770; inactive.
After knock-down of nmo (GeneID 38890) [DRSC08902] the results were induced reporter light, run 1, well a = 2.21e5; induced reporter light, run 1, well b = 2.18e5; control promoter light, run 1, well a = 2.48e5; control promoter light, run 1, well b = 2.67e5; uninduced reporter light, run 1, well a = 14265; inactive.
Silencing of nmo (GeneID 38890) [DRSC11377] came out at: induced reporter light, run 1, well a = 1.26e5; induced reporter light, run 1, well b = 1.06e5; control promoter light, run 1, well a = 77790; control promoter light, run 1, well b = 42000; uninduced reporter light, run 1, well a = 8025; inactive.
CG15353 (GeneID 50191) [DRSC00383] gave induced reporter light, run 1, well a = 1.29e5; induced reporter light, run 1, well b = 1.35e5; control promoter light, run 1, well a = 1.03e5; control promoter light, run 1, well b = 73310; uninduced reporter light, run 1, well a = 9720; inactive.
CG10799 (GeneID 36472) [DRSC06002] showed induced reporter light, run 1, well a = 1.00e5; induced reporter light, run 1, well b = 96940; control promoter light, run 1, well a = 1.27e5; control promoter light, run 1, well b = 1.23e5; uninduced reporter light, run 1, well a = 9675; inactive.
For TkR86C (GeneID 41286) [DRSC16880], the entry reads induced reporter light, run 1, well a = 96395; induced reporter light, run 1, well b = 1.05e5; control promoter light, run 1, well a = 78650; control promoter light, run 1, well b = 63705; uninduced reporter light, run 1, well a = 6450; inactive.
Knock-down of CG31560 (GeneID 40772) [DRSC12136] came out at: induced reporter light, run 1, well a = 34910; induced reporter light, run 1, well b = 63445; control promoter light, run 1, well a = 42600; control promoter light, run 1, well b = 39700; uninduced reporter light, run 1, well a = 2320; inactive.
Knock-down of nau (GeneID 42799) [DRSC17011] gave: induced reporter light, run 1, well a = 1.33e5; induced reporter light, run 1, well b = 1.31e5; control promoter light, run 1, well a = 1.33e5; control promoter light, run 1, well b = 1.07e5; uninduced reporter light, run 1, well a = 10795; inactive.
CG15043 (GeneID 32835) [DRSC19619] gave induced reporter light, run 1, well a = 74505; induced reporter light, run 1, well b = 67570; control promoter light, run 1, well a = 93360; control promoter light, run 1, well b = 83035; uninduced reporter light, run 1, well a = 10590; inactive.
CG16812 (GeneID 34722) [DRSC02519] scored induced reporter light, run 1, well a = 2.50e5; induced reporter light, run 1, well b = 2.87e5; control promoter light, run 1, well a = 2.10e5; control promoter light, run 1, well b = 2.16e5; uninduced reporter light, run 1, well a = 22890; inactive.

Sorted by “induced reporter light, run 1, well b” (ascending): some entries from above.
CG15043 (GeneID 32835) [DRSC19619] — induced reporter light, run 1, well a = 74505; induced reporter light, run 1, well b = 67570; control promoter light, run 1, well a = 93360; control promoter light, run 1, well b = 83035; uninduced reporter light, run 1, well a = 10590; Outcome = inactive
nau (GeneID 42799) [DRSC17011] — induced reporter light, run 1, well a = 1.33e5; induced reporter light, run 1, well b = 1.31e5; control promoter light, run 1, well a = 1.33e5; control promoter light, run 1, well b = 1.07e5; uninduced reporter light, run 1, well a = 10795; Outcome = inactive

Further records follow:
With knock-down of CG13725 (GeneID 39928) [DRSC10054] the results were induced reporter light, run 1, well a = 1.58e5; induced reporter light, run 1, well b = 1.39e5; control promoter light, run 1, well a = 2.28e5; control promoter light, run 1, well b = 2.24e5; uninduced reporter light, run 1, well a = 10820; inactive.
CG14126 (retired record) (GeneID 39350) [DRSC10130] gave induced reporter light, run 1, well a = 1.51e5; induced reporter light, run 1, well b = 1.55e5; control promoter light, run 1, well a = 1.96e5; control promoter light, run 1, well b = 1.63e5; uninduced reporter light, run 1, well a = 7230; inactive.
With knock-down of CG13965 (GeneID 35280) [DRSC02307], the record shows induced reporter light, run 1, well a = 63320; induced reporter light, run 1, well b = 56145; control promoter light, run 1, well a = 63835; control promoter light, run 1, well b = 47985; uninduced reporter light, run 1, well a = 2560; inactive.
Silencing of Nepl21 (GeneID 43413) [DRSC14133] gave: induced reporter light, run 1, well a = 1.66e5; induced reporter light, run 1, well b = 1.91e5; control promoter light, run 1, well a = 3.05e5; control promoter light, run 1, well b = 2.54e5; uninduced reporter light, run 1, well a = 13855; inactive.
With knock-down of Dref (GeneID 34328) [DRSC03319], the screen gave induced reporter light, run 1, well a = 1.16e5; induced reporter light, run 1, well b = 1.38e5; control promoter light, run 1, well a = 1.18e5; control promoter light, run 1, well b = 1.04e5; uninduced reporter light, run 1, well a = 7875; inactive.
Knock-down of Or67b (GeneID 39120) [DRSC11241] resulted in: induced reporter light, run 1, well a = 1.17e5; induced reporter light, run 1, well b = 1.07e5; control promoter light, run 1, well a = 1.53e5; control promoter light, run 1, well b = 1.59e5; uninduced reporter light, run 1, well a = 6665; inactive.
After knock-down of CG3408 (GeneID 39107) [DRSC10360] the results were induced reporter light, run 1, well a = 1.33e5; induced reporter light, run 1, well b = 1.18e5; control promoter light, run 1, well a = 1.69e5; control promoter light, run 1, well b = 1.61e5; uninduced reporter light, run 1, well a = 7055; inactive.
